Results are given in words; binding and its absence hold for the method and conditions named. In cells and extracts the contact can be indirect. Some binding calls cover weakened binding; strength is not graded here.
B1: kindlin-1 (protein, UniProt Q9BQL6 1-677)
chain: MLSSTDFTFASWELVVRVDHPNEEQQKDVTLRVSGDLHVGGVMLKLVEQINISQDWSDFALWWEQKHCWLLKTHWTLDKYGVQADAKLLFTPQHKMLRLRLPNLKMVRLRVSFSAVVFKAVSDICKILNIRRSEELSLLKPSGDYFKKKKKKDKNNKEPIIEDILNLESSPTASGSSVSPGLYSKTMTPIYDPINGTPASSTMTWFSDSPLTEQNCSILAFSQPPQSPEALADMYQPRSLVDKAKLNAGWLDSSRSLMEQGIQEDEQLLLRFKYYSFFDLNPKYDAVRINQLYEQARWAILLEEIDCTEEEMLIFAALQYHISKLSLSAETQDFAGESEVDEIEAALSNLEVTLEGGKADSLLEDITDIPKLADNLKLFRPKKLLPKAFKQYWFIFKDTSIAYFKNKELEQGEPLEKLNLRGCEVVPDVNVAGRKFGIKLLIPVADGMNEMYLRCDHENQYAQWMAACMLASKGKTMADSSYQPEVLNILSFLRMKNRNSASQVASSLENMDMNPECFVSPRCAKRHKSKQLAARILEAHQNVAQMPLVEAKLRFIQAWQSLPEFGLTYYLVRFKGSKKDDILGVSYNRLIKIDAATGIPVTTWRFTNIKQWNVNWETRQVVIEFDQNVFTAFTCLSADCKIVHEYIGGYIFLSTRSKDQNETLDEDLFHKLTGGQD
B2: dyskerin (DKC1) (protein, UniProt O60832 1-514)
chain: MADAEVIILPKKHKKKKERKSLPEEDVAEIQHAEEFLIKPESKVAKLDTSQWPLLLKNFDKLNVRTTHYTPLACGSNPLKREIGDYIRTGFINLDKPSNPSSHEVVAWIRRILRVEKTGHSGTLDPKVTGCLIVCIERATRLVKSQQSAGKEYVGIVRLHNAIEGGTQLSRALETLTGALFQRPPLIAAVKRQLRVRTIYESKMIEYDPERRLGIFWVSCEAGTYIRTLCVHLGLLLGVGGQMQELRRVRSGVMSEKDHMVTMHDVLDAQWLYDNHKDESYLRRVVYPLEKLLTSHKRLVMKDSAVNAICYGAKIMLPGVLRYEDGIEVNQEIVVITTKGEAICMAIALMTTAVISTCDHGIVAKIKRVIMERDTYPRKWGLGPKASQKKLMIKQGLLDKHGKPTDSTPATWKQEYVDYSESAKKEVVAEVVKAPQVVAEAAKTAKRKRESESESDETPPAAPQLIKKEKKKSKKDKKAKAGLESGAEPGDGDSDTTKKKKKKKKAKEVELVSE

Chains of the proteins cited; added tags and fusions are not shown.
UniProt Q13418: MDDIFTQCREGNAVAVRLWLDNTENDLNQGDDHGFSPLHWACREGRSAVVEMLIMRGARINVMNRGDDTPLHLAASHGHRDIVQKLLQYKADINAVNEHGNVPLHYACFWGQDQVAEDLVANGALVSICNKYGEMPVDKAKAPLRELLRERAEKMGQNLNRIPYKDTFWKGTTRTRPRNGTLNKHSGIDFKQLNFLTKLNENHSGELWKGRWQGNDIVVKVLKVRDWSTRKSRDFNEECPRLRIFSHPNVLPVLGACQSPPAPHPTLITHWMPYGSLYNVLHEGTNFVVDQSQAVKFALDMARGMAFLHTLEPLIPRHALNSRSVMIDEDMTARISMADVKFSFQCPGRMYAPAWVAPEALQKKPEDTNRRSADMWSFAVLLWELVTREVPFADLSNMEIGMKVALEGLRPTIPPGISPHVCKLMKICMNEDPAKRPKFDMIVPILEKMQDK
UniProt P01100: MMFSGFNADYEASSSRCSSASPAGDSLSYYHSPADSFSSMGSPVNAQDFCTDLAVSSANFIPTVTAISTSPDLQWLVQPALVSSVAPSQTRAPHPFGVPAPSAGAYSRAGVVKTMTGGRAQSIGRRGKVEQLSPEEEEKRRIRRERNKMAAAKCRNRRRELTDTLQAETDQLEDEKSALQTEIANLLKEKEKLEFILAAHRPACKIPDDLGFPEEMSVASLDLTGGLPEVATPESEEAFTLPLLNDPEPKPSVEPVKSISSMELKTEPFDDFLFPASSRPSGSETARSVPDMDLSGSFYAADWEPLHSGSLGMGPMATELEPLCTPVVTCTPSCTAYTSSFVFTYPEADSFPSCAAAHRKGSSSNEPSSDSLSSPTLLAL

What was measured:
[1] = target: integrin-linked kinase (ILK) (human (endogenous in PCI13)) (UniProt Q13418); experiment: co-IP; RIPA lysates (200 µg total protein) of low and high expressing COLXVI clones and mock controls; precipitated with anti-ILK or anti-c-Fos on µMACS Protein A/G MicroBeads; immunoblot for kindlin-1 or dyskerin
[2] = target: c-Fos (human (endogenous in PCI13)) (UniProt P01100); experiment: as above

| binding [1] | binding [2] | Binder |
| --- | --- | --- |
| binds | – | B1 |
| – | binds | B2 |

— PMC3900656
